Test results: doi:10.1101/2020.09.03.281279
These are yes or no findings as the source states them, for the method shown. In cells and extracts the contact can be indirect. These calls come from enrichment with a bait or labelling near it, and not all partners need be listed. Where a sequence is shown, tags or fusion partners need not be part of it.

T1: RqcH C-terminally tagged with a FLAG3 epitope (B. subtilis) (UniProt O34693)
T1 sequence: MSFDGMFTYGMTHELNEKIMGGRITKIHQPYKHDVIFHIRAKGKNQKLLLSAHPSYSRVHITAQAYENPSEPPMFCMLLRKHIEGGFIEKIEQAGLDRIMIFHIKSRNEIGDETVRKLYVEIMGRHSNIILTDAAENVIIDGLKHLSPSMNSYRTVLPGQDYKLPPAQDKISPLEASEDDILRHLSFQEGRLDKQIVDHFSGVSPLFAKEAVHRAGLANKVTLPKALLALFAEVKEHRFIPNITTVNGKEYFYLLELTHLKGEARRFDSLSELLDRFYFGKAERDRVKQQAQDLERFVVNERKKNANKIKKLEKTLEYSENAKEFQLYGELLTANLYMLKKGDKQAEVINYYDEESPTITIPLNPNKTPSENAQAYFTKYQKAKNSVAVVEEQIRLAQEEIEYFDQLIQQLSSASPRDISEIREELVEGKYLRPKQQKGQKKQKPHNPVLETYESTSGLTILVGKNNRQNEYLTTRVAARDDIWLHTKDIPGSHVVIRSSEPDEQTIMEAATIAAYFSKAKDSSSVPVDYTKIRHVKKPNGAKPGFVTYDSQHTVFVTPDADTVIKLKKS

T2: YabO with a C-terminal FLAG3-tag (B. subtilis) (UniProt P37557)
T2 sequence: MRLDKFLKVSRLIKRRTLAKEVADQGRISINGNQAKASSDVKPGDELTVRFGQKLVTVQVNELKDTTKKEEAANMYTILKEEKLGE


What was measured:
[1] = biological target: T1, RqcH C-terminally tagged with a FLAG3 epitope (B. subtilis); test: affinity purification with mass spectrometry
[2] = biological target: T2, YabO with a C-terminal FLAG3-tag (B. subtilis); test: affinity purification with mass spectrometry

Binder	binding [1]	binding [2]
YabO (endogenous, found in the RqcH-FLAG3 pull-out) (protein, UniProt P37557 1-86) MRLDKFLKVSRLIKRRTLAKEVADQGRISINGNQAKASSDVKPGDELTVRFGQKLVTVQVNELKDTTKKEEAANMYTILKEEKLGE	binds	–
RqcH (endogenous, found in the YabO-FLAG3 pull-out) (protein, UniProt O34693 1-570) MSFDGMFTYGMTHELNEKIMGGRITKIHQPYKHDVIFHIRAKGKNQKLLLSAHPSYSRVHITAQAYENPSEPPMFCMLLRKHIEGGFIEKIEQAGLDRIMIFHIKSRNEIGDETVRKLYVEIMGRHSNIILTDAAENVIIDGLKHLSPSMNSYRTVLPGQDYKLPPAQDKISPLEASEDDILRHLSFQEGRLDKQIVDHFSGVSPLFAKEAVHRAGLANKVTLPKALLALFAEVKEHRFIPNITTVNGKEYFYLLELTHLKGEARRFDSLSELLDRFYFGKAERDRVKQQAQDLERFVVNERKKNANKIKKLEKTLEYSENAKEFQLYGELLTANLYMLKKGDKQAEVINYYDEESPTITIPLNPNKTPSENAQAYFTKYQKAKNSVAVVEEQIRLAQEEIEYFDQLIQQLSSASPRDISEIREELVEGKYLRPKQQKGQKKQKPHNPVLETYESTSGLTILVGKNNRQNEYLTTRVAARDDIWLHTKDIPGSHVVIRSSEPDEQTIMEAATIAAYFSKAKDSSSVPVDYTKIRHVKKPNGAKPGFVTYDSQHTVFVTPDADTVIKLKKS	–	binds
ribosomal silencing factor RsfS (protein, UniProt P54457 1-118) MNQKSILKIAAAACDDKRAEDILALDMEGISLVADYFLICHGNSDKQVQAIAREIKDQADENGIQVKKMEGFDEARWVLVDLGDVVVHVFHKDERSYYNLEKLWGDAPLADLDFGMNQ	–	binds
